The assay can be described thus: qHTS Assay to Find Inhibitors of Chronic Active B-Cell Receptor Signaling. To be noted: ABC-DLBCL IkBa-CBG/CBR reporter, luminescence ratio (green luciferase fused to IkBa over red control in TMD8 lymphoma cells), 4 h. In short, it runs like this:
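Cell line TMD8 (human ABC DLBCL), stably expressing tet-inducible CBG68-IkBa fusion and CBR; IMDM/0.5% FBS; cpd up to 46 uM; dox induction, 4 h, 37C/5% CO2; dual luminescence; green/red ratio; MG132 control.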
(qHTS replaces the single test concentration by a dilution series.)

Where [1] appears, read: measured here: CBR red luminescence, cell number.
The mark [2] stands for this setting: measured here: IkBa-CBG green luminescence.

Molecules are shown by their SMILES. The list shows a part of the results. Shown are side measurements of this screen, not its main read-out; they come without a call. Most of these compounds were active or inconclusive in the main read-out, so they are no random draw. Words in brackets tell the shape of the fitted curve; partial curves, single points and poor fits give uncertain potencies.

In general, AC50 refers to the concentration giving half of the maximal activity seen. With `COC(=O)c1c(NC(=O)C(=O)NCC2CCCO2)sc2c1CC(C)(C)OC2` (stereo not given), the half-maximal activity concentration (AC50) under setting [1] was 5.62 µM [rising, single point]. As to `Cc1cc(=O)oc2cc(Oc3ccc(C(N)=O)cc3[N+](=O)[O-])ccc12`, the AC50 under setting [1] was 35.5 µM [falling, partial curve, poor fit]. Consider `CCNC(=S)N/N=C(\C)c1ccc2ccccc2c1OC(F)F`, for which the AC50 under setting [1] is 35.5 µM [falling, single point] and the AC50 under setting [2] was 25.1 µM [falling, single point]. Consider `CC(=O)c1sc(Nc2nc3ccc(F)cc3s2)nc1C`, for which the AC50 under setting [2] was 22.4 µM [falling, single point]. `O=C(CCN1C(=O)S/C(=C\c2ccccc2)C1=O)Nc1ccc(O)cc1C(=O)O`: the AC50 under setting [1] is 12.6 µM [falling, single point]. As to `Cc1cccc(-n2cnc(C(=O)Nc3cccnc3)c2)n1`, the AC50 under setting [1] was 1.26 µM [falling, full curve]. Still for that read-out and setting: in the case of `COc1ccc(CN(C)CC(=O)Nc2cccc(S(=O)(=O)N3CCCC3)c2)cc1F` it was 29.1 µM [falling, single point]; in that of `C/C(CC(=O)Nc1ccc(Cl)cc1Cl)=N\NC(=O)C(=O)NCCO`, 16.4 µM [falling, partial curve]; in that of `CC(=O)c1sc(NC(=O)CN2C(=O)NC3(CCCC3)C2=O)nc1-c1ccccc1`, 18.4 µM [falling, partial curve, poor fit]. On the same count and under the same terms, for `COc1ccc(C(=O)C[n+]2ccc(N)c(C)c2C)cc1` the value was 35.5 µM [rising, single point].

With `Oc1c(Cl)cc(Cl)c2cccnc12`, the AC50 is 6.31 µM [rising, single point] under setting [1] and 22.4 µM [falling, partial curve, poor fit] under setting [2].

Regarding `CCc1ccc(N2CC(C(=O)NCc3ccc4c(c3)OCO4)CC2=O)cc1` (stereo not given), the AC50 under setting [1] was 28.2 µM [falling, single point]. `Cc1cccc(-n2nc(C)c3c2NC2=C(C(=O)CCC2)C3c2ccccn2)c1` (stereo not given): the AC50 under setting [1] is 35.5 µM [falling, single point]. With `c1ccc(-n2c3ccccc3c3ccccc32)cc1`, the AC50 under setting [1] was 14.1 µM [rising, single point]. Take `COc1cc(OC)cc(-c2nc3ccccc3c(=O)o2)c1`: the AC50 under setting [1] was 2.31 µM [falling, partial curve].

For the compound `N=C1SCC(=O)N1c1ncc(Cc2cccc(Cl)c2)s1`, the half-maximal activity concentration (AC50) reads like this: under setting [1], 7.08 µM [rising, full curve]; under setting [2], 22.4 µM [falling, partial curve]. As to `O=C1c2ccccc2/C(=C\C#Cc2ccccn2)N1c1ccccc1`, under setting [1], the AC50 is 16.4 µM [falling, single point].

Values taken from PubChem BioAssay AID493014 (National Center for Advancing Translational Sciences (NCATS), 2011).
